Data as given in PubChem BioAssay AID1259327 (Drosophila RNAi Screening Center, 2017).

Purpose: 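Knock-downs altering cellular ATP with no metal added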
System: Drosophila S2R+ cells
Reagent: long dsRNA against Drosophila genes
Time to read-out: 5 days (water added on day 4, read one day later)
Treatment: water added as vehicle, no metal, one day before read-out
Detection: 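Luciferase ATP signal per well, normalised to plate mean, duplicate average converted to z-score across plates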
Direction: ATP z-score: higher = more total ATP than typical wells; ATP luminescence: higher = more total ATP
Hit rule: 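a hit is any knock-down whose absolute ATP z-score is greater than 1.5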
Meaning of the calls: active = hit: ATP up or down; inactive = no clear ATP change
Here is an unselected part of about 3,100 reagents. Over the whole deposit, 378 (12%) are marked active. 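Hits include both directions; z-score sign shows ATP rise or fall; raw luminescence values are not plate-normalised.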 A number with no mark means an inactive call. The numbers tell different reagents against one gene apart. A plus sign joins genes that one reagent is predicted to hit. No sequences are given here. The record does not give: the amount of reagent.

After knock-down of CG8046 the results were ATP z-score, duplicate mean 0.246; ATP luminescence, replicate 1 (RLU) = 7.98e5; ATP luminescence, replicate 2 (RLU) = 7.15e5.
After knock-down of cac #1, the record shows ATP z-score, duplicate mean 0.437; ATP luminescence, replicate 1 (RLU) = 7.50e5; ATP luminescence, replicate 2 (RLU) = 7.52e5.
After knock-down of cac #2, the record shows ATP z-score, duplicate mean -1.12; ATP luminescence, replicate 1 (RLU) = 5.39e5; ATP luminescence, replicate 2 (RLU) = 4.29e5.
Knock-down of CG6763 #1 came out at: ATP z-score, duplicate mean -0.279; ATP luminescence, replicate 1 (RLU) = 2.79e5; ATP luminescence, replicate 2 (RLU) = 7.50e5.
With knock-down of CG6763 #2, the screen gave ATP z-score, duplicate mean 3.05 (active); ATP luminescence, replicate 1 (RLU) = 1.05e6; ATP luminescence, replicate 2 (RLU) = 1.41e6.
After knock-down of CG13877 + pyx, the record shows ATP z-score, duplicate mean -0.211; ATP luminescence, replicate 1 (RLU) = 5.52e5; ATP luminescence, replicate 2 (RLU) = 6.49e5.
With knock-down of wgn #1, the screen gave ATP z-score, duplicate mean -0.668; ATP luminescence, replicate 1 (RLU) = 6.34e5; ATP luminescence, replicate 2 (RLU) = 7.08e5.
Depletion of wgn #2 resulted in: ATP z-score, duplicate mean -0.0473; ATP luminescence, replicate 1 (RLU) = 4.32e5; ATP luminescence, replicate 2 (RLU) = 4.94e5.
For CG12746 #1 the deposit lists ATP z-score, duplicate mean 0.839; ATP luminescence, replicate 1 (RLU) = 8.53e5; ATP luminescence, replicate 2 (RLU) = 7.87e5.
After knock-down of CG12746 #2, the screen gave ATP z-score, duplicate mean 1.02; ATP luminescence, replicate 1 (RLU) = 4.80e5; ATP luminescence, replicate 2 (RLU) = 8.55e5.
Knock-down of Proc-R #1 gave: ATP z-score, duplicate mean -1.27; ATP luminescence, replicate 1 (RLU) = 5.38e5; ATP luminescence, replicate 2 (RLU) = 8.41e5.
Against Proc-R #2, the entry reads ATP z-score, duplicate mean 0.193; ATP luminescence, replicate 1 (RLU) = 5.36e5; ATP luminescence, replicate 2 (RLU) = 4.19e5.
After knock-down of CG1924 #1, the record shows ATP z-score, duplicate mean 1.48; ATP luminescence, replicate 1 (RLU) = 7.01e5; ATP luminescence, replicate 2 (RLU) = 8.05e5.
For CG1924 #2 the deposit lists ATP z-score, duplicate mean -0.326; ATP luminescence, replicate 1 (RLU) = 8.33e5; ATP luminescence, replicate 2 (RLU) = 7.38e5.
Nct #1 showed ATP z-score, duplicate mean -0.0973; ATP luminescence, replicate 1 (RLU) = 7.41e5; ATP luminescence, replicate 2 (RLU) = 6.52e5.
Knock-down of Nct #2 resulted in: ATP z-score, duplicate mean 0.308; ATP luminescence, replicate 1 (RLU) = 4.33e5; ATP luminescence, replicate 2 (RLU) = 5.42e5.
Depletion of COX7AL came out at: ATP z-score, duplicate mean -0.271; ATP luminescence, replicate 1 (RLU) = 8.36e5; ATP luminescence, replicate 2 (RLU) = 7.48e5.
Against CG10465 #1 the deposit lists ATP z-score, duplicate mean -0.478; ATP luminescence, replicate 1 (RLU) = 7.10e5; ATP luminescence, replicate 2 (RLU) = 6.41e5.
Depletion of CG10465 #2 resulted in: ATP z-score, duplicate mean -0.248; ATP luminescence, replicate 1 (RLU) = 5.16e5; ATP luminescence, replicate 2 (RLU) = 6.16e5.
Depletion of Pex3 came out at: ATP z-score, duplicate mean -1.88 (active); ATP luminescence, replicate 1 (RLU) = 4.55e5; ATP luminescence, replicate 2 (RLU) = 6.08e5.

Records listed above with an active call, once more:
CG6763 #2: ATP z-score, duplicate mean = 3.05 (active); ATP luminescence, replicate 1 (RLU) = 1.05e6; ATP luminescence, replicate 2 (RLU) = 1.41e6
Pex3: ATP z-score, duplicate mean = -1.88 (active); ATP luminescence, replicate 1 (RLU) = 4.55e5; ATP luminescence, replicate 2 (RLU) = 6.08e5

Continued.
Knock-down of Gr39a #1 gave: ATP z-score, duplicate mean -0.94; ATP luminescence, replicate 1 (RLU) = 6.17e5; ATP luminescence, replicate 2 (RLU) = 6.66e5.
Against Gr39a #2, the entry reads ATP z-score, duplicate mean -0.346; ATP luminescence, replicate 1 (RLU) = 6.65e5; ATP luminescence, replicate 2 (RLU) = 7.47e5.
Depletion of Gr39a #3 gave: ATP z-score, duplicate mean -1.11; ATP luminescence, replicate 1 (RLU) = 8.50e5; ATP luminescence, replicate 2 (RLU) = 1.02e6.
Silencing of Or30a #1 resulted in: ATP z-score, duplicate mean -0.371; ATP luminescence, replicate 1 (RLU) = 6.91e5; ATP luminescence, replicate 2 (RLU) = 6.83e5.
Against Or30a #2, the entry reads ATP z-score, duplicate mean -0.104; ATP luminescence, replicate 1 (RLU) = 4.54e5; ATP luminescence, replicate 2 (RLU) = 4.62e5.
Fas3 #1 scored ATP z-score, duplicate mean 2.82 (active); ATP luminescence, replicate 1 (RLU) = 1.07e6; ATP luminescence, replicate 2 (RLU) = 9.79e5.
Fas3 #2 gave ATP z-score, duplicate mean 3.13 (active); ATP luminescence, replicate 1 (RLU) = 8.89e5; ATP luminescence, replicate 2 (RLU) = 7.99e5.
Fas3 #3 gave ATP z-score, duplicate mean 0.589; ATP luminescence, replicate 1 (RLU) = 9.55e5; ATP luminescence, replicate 2 (RLU) = 8.37e5.
For Nup54, the entry reads ATP z-score, duplicate mean 1.45; ATP luminescence, replicate 1 (RLU) = 8.01e5; ATP luminescence, replicate 2 (RLU) = 9.73e5.
Knock-down of Nup58 #1 came out at: ATP z-score, duplicate mean 1.85 (active); ATP luminescence, replicate 1 (RLU) = 3.80e5; ATP luminescence, replicate 2 (RLU) = 9.67e5.
For Nup58 #2, the values are ATP z-score, duplicate mean 1.15; ATP luminescence, replicate 1 (RLU) = 9.62e5; ATP luminescence, replicate 2 (RLU) = 9.91e5.
